The other results are listed elsewhere or left out. These are raw signals, not scaled to a control.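 Primary screen: polymyxin B was added at a level permeabilizing Salmonella outer membranes while sparing inner membranes. DMSO wells, both with and without polymyxin B, established maximum growth. Plate-to-plate variation meant each plate was ranked on its own, and the lowest-OD600 compounds were selected as hits.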
Test system: Salmonella enterica serovar Typhimurium SL1344
Assay: bacterial growth OD600 after 18 h with compound and polymyxin B; higher = more bacterial growth (less inhibition)
Details: 50 µM, Mueller-Hinton broth

SMILES	bacterial growth OD600 (polymyxin B 0.75 µg/mL)	bacterial growth OD600 (polymyxin B 1 µg/mL)
O=C1CCC(CCC(=O)N2CCCN(C(=O)c3ccco3)CC2)(Cc2ccc3ccccc3c2)N1 (stereo unspecified)	0.895	
CCn1nc(C)c(CN2CCC(Oc3ccccc3C(=O)N3CCCCC3)CC2)c1C		0.947
CC(C)CC(O)C1CCN(Cc2nc(-c3ccccn3)no2)CC1 (stereo unspecified)		1.03
CN(C(=O)c1cc(-c2cccn2C)n[nH]1)C1CCCN(CCc2ccccc2)C1 (stereo unspecified)		0.947
O=C(NCc1ccccn1)c1coc(COc2cccc(F)c2)n1		0.905
Cc1ccccc1OCC1CCCN(Cc2nc(Cc3ccccc3F)no2)C1 (stereo unspecified)		0.623
COc1cc(C)ccc1OCc1nc(C(=O)N2CCCCO2)co1		0.977
CSCCC(=O)N1CCC(C2(c3ccccn3)NC(=O)N(CCc3cccs3)C2=O)CC1 (stereo unspecified)	0.895	
COCCCC1CCN(C(=O)c2cn(CCc3ccccc3)nn2)CC1		0.873
O=C(CC1C(=O)NCCN1Cc1c(F)cccc1Cl)NCC(F)(F)F (stereo unspecified)	0.834	
C=CC[C@@H]1CC=C[C@@H](C)N1C(=O)CCc1nnc(Cc2cc(OC)ccc2OC)o1	0.819	
CC(C)Cc1cn[nH]c1C1CCCN(Cc2cc3ccccc3[nH]2)C1 (stereo unspecified)	0.658	
COCCCN1C(=O)CC(CC(=O)N(CCO)Cc2ccccc2)(c2ccccc2OC)C1=O (stereo unspecified)	0.796	
CN(c1ncccc1CNCc1ccc2c(c1)OCCO2)C1CCCCC1		1.06
COc1cccc(CN(C)C(=O)c2ccc3nc(C4CCCCC4)oc3c2)c1		0.807
CSc1ccc(CC2(CCC(=O)NCc3c[nH]nc3-c3ccc(Cl)cc3)CCC(=O)N2)cc1 (stereo unspecified)	0.818	

SMILES	bacterial growth OD600 (polymyxin B 0.75 µg/mL)	bacterial growth OD600 (polymyxin B 1 µg/mL)
Cc1csc(C(C)N(C)C(=O)c2cc(Cn3nc(C)cc3C)[nH]n2)n1 (stereo unspecified)	0.789	
CC(C)(CO)CN1CCCC(C(=O)Nc2cccc(-c3ccc(F)cc3)c2)C1 (stereo unspecified)		0.842
CCOC(=O)C1(CC2CC2)CCN(Cc2ccccc2Cl)CC1		0.792
CCOC(=O)CNC(=O)N1CCC2(CCCN(CC3CC3)C2=O)C1 (stereo unspecified)		0.965
O=C(CCC1CCN(C(=O)CCc2cnccn2)CC1)NCc1cccc(Cl)c1		0.932
O=C(CC1C(=O)NCCN1Cc1ccccc1)NC1C2CC3CC(C2)CC1C3 (stereo unspecified)		0.831
Cc1ccc(C(=O)N2CCC3(CCCN(Cc4ccc(F)cc4)C3=O)C2)cc1 (stereo unspecified)		0.844
CN(C(=O)c1csc2nc(-c3ccccc3)cn12)C1CCCCC1		0.885
O=C(CCC1CCN(C(=O)CCc2cccs2)CC1)NCC1CCCO1 (stereo unspecified)		0.951
COCCN1C(=O)CC(CC(=O)N2CCC(OCc3ccccc3)CC2)(c2cccc(OC)c2)C1=O (stereo unspecified)	0.914	
C[C@@H]1CN(C(=O)C2(N3C[C@@H](C)O[C@@H](C)C3)Cc3ccccc3C2)C[C@H](C)O1		0.018
COc1ccc(-n2ncc(C(C)NCc3cccc(SC)c3)c2C)cc1 (stereo unspecified)		1.06
O=C(NCCC(c1ccccc1)c1ccccc1)C1CC12CCN(C(=O)Cc1ccccc1F)CC2 (stereo unspecified)	0.011	
Cc1cc(C)n(CCNC(=O)c2cc(NC(=O)CC3CCCC3)cc3nc(C4CCCO4)n(C)c23)n1 (stereo unspecified)	0.806	
CCOC(=O)C1(CCOc2ccccc2)CCN(Cc2ccc(O)cc2)CC1		0.833

An excerpt of these results, comma-delimited:
SMILES,bacterial growth OD600 (polymyxin B 0.75 µg/mL),bacterial growth OD600 (polymyxin B 1 µg/mL)
O=C(CC1C(=O)NCCN1Cc1ccccc1)NC1C2CC3CC(C2)CC1C3 (stereo unspecified),,0.831
Cc1ccc(C(=O)N2CCC3(CCCN(Cc4ccc(F)cc4)C3=O)C2)cc1 (stereo unspecified),,0.844

— the supplement of paper PMC12889115
